Reference: the supplement of paper PMC10849652
Some of the results follow.

Amino acid sequences for entries named in this document (tags omitted). A change or cut given only in a name is not applied to a line headed by its entry.
UniProt Q8IWJ2: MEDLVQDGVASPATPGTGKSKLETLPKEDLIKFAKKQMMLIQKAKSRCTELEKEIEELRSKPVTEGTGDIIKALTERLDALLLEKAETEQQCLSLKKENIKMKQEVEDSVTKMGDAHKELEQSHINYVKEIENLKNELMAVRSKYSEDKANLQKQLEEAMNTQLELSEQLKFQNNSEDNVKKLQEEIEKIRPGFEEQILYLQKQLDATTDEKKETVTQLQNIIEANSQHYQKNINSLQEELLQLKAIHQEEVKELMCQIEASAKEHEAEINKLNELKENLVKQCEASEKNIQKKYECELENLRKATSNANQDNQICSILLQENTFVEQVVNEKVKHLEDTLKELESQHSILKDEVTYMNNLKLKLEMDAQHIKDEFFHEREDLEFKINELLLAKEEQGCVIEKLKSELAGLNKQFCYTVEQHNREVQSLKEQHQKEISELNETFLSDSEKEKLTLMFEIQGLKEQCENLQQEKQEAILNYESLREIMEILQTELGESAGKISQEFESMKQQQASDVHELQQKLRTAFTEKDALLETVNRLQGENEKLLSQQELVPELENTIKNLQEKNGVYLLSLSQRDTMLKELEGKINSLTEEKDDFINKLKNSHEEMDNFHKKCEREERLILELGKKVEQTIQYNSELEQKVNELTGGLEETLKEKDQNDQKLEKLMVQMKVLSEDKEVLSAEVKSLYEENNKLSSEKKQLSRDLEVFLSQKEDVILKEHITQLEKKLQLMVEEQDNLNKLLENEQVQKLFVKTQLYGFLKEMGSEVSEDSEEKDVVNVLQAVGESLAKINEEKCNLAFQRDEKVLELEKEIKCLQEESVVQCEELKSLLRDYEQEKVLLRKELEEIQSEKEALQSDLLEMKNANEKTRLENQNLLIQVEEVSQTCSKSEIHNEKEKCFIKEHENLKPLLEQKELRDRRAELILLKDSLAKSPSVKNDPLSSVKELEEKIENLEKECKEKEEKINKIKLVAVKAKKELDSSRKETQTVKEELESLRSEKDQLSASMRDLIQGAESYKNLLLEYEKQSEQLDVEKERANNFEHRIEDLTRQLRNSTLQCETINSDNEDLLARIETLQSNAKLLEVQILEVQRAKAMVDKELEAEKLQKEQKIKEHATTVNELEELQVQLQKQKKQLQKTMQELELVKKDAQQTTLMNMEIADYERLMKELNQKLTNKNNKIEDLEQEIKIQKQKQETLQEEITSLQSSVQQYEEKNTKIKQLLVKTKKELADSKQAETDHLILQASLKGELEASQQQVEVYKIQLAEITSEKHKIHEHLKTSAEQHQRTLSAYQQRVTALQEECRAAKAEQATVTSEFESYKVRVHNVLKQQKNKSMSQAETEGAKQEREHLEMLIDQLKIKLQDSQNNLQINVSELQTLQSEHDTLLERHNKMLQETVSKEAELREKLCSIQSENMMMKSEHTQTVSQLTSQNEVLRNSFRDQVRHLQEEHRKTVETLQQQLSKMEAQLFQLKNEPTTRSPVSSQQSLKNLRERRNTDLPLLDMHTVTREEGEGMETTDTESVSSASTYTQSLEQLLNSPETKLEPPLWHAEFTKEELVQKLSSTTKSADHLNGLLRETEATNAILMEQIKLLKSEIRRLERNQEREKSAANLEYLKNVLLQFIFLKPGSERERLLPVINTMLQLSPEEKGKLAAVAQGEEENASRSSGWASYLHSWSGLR
UniProt P51570: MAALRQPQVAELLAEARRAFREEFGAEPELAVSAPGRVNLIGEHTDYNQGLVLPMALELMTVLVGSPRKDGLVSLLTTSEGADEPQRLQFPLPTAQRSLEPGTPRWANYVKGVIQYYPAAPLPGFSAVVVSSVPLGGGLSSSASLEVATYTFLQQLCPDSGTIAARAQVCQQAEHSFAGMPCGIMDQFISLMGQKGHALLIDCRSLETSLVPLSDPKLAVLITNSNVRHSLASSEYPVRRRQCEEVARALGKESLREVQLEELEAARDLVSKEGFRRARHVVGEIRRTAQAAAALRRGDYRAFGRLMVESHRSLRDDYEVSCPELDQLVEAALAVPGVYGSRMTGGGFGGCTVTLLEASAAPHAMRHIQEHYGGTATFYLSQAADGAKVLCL
UniProt P23434: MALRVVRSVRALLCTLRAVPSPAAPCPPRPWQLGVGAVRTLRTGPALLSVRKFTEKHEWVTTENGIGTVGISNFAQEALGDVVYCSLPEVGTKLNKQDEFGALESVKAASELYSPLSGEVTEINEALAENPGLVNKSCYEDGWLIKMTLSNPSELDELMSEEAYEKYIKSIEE
UniProt Q9NY12: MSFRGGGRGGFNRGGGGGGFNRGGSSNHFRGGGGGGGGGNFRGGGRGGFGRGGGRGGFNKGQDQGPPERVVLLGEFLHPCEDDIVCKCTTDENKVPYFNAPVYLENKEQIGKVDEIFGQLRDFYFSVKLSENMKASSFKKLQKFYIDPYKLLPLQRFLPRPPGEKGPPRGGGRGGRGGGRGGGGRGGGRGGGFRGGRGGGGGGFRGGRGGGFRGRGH
UniProt Q8IWF2: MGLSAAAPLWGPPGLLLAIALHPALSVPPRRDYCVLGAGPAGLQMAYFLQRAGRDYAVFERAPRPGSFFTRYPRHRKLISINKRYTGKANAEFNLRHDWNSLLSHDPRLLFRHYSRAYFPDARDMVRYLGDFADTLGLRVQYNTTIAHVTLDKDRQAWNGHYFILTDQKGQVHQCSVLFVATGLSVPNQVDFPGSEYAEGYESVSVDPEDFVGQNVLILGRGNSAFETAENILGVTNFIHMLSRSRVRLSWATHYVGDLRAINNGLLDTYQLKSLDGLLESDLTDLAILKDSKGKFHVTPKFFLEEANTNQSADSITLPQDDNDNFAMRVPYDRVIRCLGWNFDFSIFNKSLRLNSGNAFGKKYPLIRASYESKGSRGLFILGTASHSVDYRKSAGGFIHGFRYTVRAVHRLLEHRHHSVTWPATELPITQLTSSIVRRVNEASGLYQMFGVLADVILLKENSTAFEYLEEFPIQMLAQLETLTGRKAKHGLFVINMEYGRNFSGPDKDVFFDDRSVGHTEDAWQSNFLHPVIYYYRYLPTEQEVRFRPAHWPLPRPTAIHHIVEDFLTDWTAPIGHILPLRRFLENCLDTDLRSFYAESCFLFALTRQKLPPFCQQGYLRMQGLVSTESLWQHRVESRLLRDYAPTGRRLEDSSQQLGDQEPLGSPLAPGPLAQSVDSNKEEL
UniProt Q9UPW0: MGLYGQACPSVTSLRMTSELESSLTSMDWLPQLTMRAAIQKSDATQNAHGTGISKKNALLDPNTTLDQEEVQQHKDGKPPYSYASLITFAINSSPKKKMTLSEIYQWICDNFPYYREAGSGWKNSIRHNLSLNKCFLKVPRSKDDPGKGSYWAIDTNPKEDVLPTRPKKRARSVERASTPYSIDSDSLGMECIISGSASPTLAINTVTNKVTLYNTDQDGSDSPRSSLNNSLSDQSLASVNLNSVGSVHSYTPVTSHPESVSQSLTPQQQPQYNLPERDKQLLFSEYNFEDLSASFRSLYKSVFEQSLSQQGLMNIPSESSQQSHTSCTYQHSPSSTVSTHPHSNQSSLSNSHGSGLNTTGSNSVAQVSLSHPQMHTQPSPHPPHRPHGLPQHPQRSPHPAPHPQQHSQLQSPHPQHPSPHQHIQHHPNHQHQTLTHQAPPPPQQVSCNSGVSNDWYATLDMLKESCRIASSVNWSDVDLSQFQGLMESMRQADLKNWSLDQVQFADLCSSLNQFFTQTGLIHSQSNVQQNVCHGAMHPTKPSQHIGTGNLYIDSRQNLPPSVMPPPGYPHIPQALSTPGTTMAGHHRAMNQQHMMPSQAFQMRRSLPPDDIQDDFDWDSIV
UniProt O43716: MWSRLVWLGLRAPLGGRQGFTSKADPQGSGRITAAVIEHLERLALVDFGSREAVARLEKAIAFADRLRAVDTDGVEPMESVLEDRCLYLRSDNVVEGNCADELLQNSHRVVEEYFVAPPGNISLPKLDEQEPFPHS
UniProt Q99988: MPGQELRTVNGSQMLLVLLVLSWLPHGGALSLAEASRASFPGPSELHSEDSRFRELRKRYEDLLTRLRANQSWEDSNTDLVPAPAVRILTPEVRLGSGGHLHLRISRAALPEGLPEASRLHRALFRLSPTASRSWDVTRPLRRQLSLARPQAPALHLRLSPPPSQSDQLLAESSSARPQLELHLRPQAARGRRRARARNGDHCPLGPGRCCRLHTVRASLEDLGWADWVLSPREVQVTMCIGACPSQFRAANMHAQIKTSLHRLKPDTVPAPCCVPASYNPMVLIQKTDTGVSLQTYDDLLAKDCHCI
UniProt Q9NXC2: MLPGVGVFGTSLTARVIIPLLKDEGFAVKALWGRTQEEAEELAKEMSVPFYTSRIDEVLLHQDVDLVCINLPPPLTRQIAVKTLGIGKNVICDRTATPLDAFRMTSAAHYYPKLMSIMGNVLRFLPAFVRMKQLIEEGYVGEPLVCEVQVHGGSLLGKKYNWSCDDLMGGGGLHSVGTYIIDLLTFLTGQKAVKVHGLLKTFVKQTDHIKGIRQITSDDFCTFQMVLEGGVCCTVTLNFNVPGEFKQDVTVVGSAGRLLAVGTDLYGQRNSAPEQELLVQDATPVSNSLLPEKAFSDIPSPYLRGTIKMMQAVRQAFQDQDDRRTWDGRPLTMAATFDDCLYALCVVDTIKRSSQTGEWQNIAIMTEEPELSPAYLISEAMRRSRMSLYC
UniProt Q9BYC5: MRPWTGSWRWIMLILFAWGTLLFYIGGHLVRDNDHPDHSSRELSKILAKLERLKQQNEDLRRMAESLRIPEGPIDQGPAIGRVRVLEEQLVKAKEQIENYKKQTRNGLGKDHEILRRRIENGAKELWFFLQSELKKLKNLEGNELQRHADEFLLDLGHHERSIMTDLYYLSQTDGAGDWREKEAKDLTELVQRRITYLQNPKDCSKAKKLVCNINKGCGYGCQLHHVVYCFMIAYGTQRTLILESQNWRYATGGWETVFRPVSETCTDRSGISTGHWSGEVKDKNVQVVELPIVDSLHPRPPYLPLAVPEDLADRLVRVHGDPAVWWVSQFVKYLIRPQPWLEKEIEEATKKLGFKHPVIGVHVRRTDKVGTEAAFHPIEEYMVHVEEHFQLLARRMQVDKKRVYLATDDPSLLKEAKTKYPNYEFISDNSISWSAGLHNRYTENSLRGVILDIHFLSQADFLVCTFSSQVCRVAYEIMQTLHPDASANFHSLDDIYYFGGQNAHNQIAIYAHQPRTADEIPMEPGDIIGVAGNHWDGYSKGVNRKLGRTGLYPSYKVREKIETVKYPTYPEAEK
UniProt P02774: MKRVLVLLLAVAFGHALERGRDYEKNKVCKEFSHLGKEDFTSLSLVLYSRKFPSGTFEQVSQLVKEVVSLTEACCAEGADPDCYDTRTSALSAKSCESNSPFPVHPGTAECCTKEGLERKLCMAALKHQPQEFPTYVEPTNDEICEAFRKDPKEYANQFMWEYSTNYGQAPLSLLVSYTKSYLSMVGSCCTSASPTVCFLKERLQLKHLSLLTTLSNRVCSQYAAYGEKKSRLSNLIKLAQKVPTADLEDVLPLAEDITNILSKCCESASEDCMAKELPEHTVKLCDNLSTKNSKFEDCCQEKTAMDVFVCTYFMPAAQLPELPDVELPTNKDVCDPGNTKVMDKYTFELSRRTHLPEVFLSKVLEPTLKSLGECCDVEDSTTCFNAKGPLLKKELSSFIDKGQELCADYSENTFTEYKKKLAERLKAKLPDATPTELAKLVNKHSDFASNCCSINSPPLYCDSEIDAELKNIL
UniProt A2VDF0: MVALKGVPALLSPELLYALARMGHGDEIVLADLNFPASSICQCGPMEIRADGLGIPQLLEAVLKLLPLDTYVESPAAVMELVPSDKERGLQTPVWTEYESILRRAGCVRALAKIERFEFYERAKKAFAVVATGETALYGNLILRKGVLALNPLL
UniProt O15117, whole entry, looked up: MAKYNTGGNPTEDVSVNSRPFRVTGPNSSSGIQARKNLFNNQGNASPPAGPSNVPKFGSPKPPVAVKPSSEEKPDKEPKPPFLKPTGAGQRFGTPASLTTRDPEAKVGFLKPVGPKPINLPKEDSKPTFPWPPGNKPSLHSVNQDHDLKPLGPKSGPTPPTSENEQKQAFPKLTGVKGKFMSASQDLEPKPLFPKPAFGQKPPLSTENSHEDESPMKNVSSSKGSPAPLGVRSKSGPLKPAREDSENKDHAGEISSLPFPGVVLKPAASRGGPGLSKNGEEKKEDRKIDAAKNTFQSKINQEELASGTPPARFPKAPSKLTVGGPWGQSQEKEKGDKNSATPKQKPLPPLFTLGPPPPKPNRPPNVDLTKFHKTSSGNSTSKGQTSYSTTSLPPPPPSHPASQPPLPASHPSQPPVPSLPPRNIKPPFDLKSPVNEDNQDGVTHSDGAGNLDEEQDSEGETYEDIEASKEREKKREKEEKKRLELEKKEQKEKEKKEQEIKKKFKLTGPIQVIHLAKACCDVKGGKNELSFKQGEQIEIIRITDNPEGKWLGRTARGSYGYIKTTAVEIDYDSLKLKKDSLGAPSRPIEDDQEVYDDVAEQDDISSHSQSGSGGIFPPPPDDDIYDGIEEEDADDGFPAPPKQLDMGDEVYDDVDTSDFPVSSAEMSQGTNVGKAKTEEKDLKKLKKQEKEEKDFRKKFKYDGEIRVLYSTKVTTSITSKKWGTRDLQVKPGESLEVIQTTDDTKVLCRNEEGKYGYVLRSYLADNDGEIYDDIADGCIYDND

What was measured:
Experiment in all cases: log2 fold change, soluble protein after heating vs DMSO (PISA); higher = thermal stabilisation; K562 cells, 10 uM, 30 min; active = over 0.2 and 3.5 SD of the protein, either way, in both replicates (recomputed)
[1] = compound: COC1=CC=C(C=C1)CN2C=CC3=C2C=C(C=C3)C(=O)NO
Outline: (§1)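 K562 cells at 2×10^6 cells/mL were treated with 10 μM compound for 30 min. Aliquots were heated for 3 min across 48°C-58°C, pooled, and extracted in PBS with 0.5% NP-40 at 4°C; soluble protein was the supernatant after 21,000xg for 90 min. Soluble protein was quantified by TMTpro 16plex LC-MS/MS with channel sums equalised, and reported as log2 fold change in thermal stability against DMSO controls, with values from duplicates.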

[2] = compound: CON(C)C(=O)N1N=C(c2cc(F)ccc2F)S[C@@]1(CCCN)c1ccccc1 [filanesib]
Outline: as §1

[3] = compound: CO[C@H]1C[C@@H]2CC[C@@H](C)[C@@](O)(O2)C(=O)C(=O)N2CCCC[C@H]2C(=O)O[C@H]([C@H](C)C[C@@H]2CC[C@H](n3cnnn3)[C@H](OC)C2)CC(=O)[C@H](C)/C=C(\C)[C@@H](O)[C@@H](OC)C(=O)[C@H](C)C[C@H](C)/C=C/C=C/C=C/1C [zotarolimus]
Outline: as §1

[4] = compound: COc1cc(C(=O)O)ccc1NC(=O)[C@@H]1N[C@@H](CC(C)(C)C)[C@](C#N)(c2ccc(Cl)cc2F)[C@H]1c1cccc(Cl)c1F [idasanutlin]
Outline: as §1

[5] = compound: COc1cc(Nc2ncc3c(n2)-c2ccc(Cl)cc2C(c2c(F)cccc2OC)=NC3)ccc1C(=O)O [alisertib]
Outline: as §1

[6] = compound: COc1cc2nc(-c3cc(F)ccc3O)nc(N[C@@H]3CNC[C@H]3C(C)(C)O)c2cc1OC
Outline: as §1

[7] = compound: COc1cc2ncnc(Nc3ccc(F)c(Cl)c3)c2cc1OCCCN1CCOCC1 [gefitinib]
Outline: as §1

[8] = compound: COc1cccc2cc(-c3nc([C@H]4CC[C@H](C(=O)O)CC4)n4ncnc(N)c34)[nH]c12
Outline: as §1

[9] = compound: CS(=O)(=O)CCNCc1ccc(-c2ccc3ncnc(Nc4ccc(OCc5cccc(F)c5)c(Cl)c4)c3c2)o1 [lapatinib]
Outline: as §1

[10] = compound: CS(=O)(=O)N1CCN(Cc2cc3nc(-c4cccc5[nH]ncc45)nc(N4CCOCC4)c3s2)CC1 [pictilisib]
Outline: as §1

Measured: log2 fold change

GAPVD1 isoform 6 (UniProt Q14C86)
inactive: [1] 0.003 | [2] 0.033 | [3] 0.055 | [4] -0.021 | [5] 0.047 | [6] -0.048 | [7] -0.013 | [8] -0.068 | [9] 0.041 | [10] -0.025

GCC2 (UniProt Q8IWJ2)
inactive: [1] -0.037 | [2] 0.137 | [3] 0.074 | [4] 0.065 | [5] -0.046 | [6] -0.037 | [7] 0.024 | [8] -0.11 | [9] 0.056 | [10] 0.014

GALK1 isoform 2 (UniProt P51570)
inactive: [1] -0.023 | [2] -0.201 | [3] 0.012 | [4] -0.106 | [5] -0.125 | [6] -0.049 | [7] -0.005 | [8] 0.036 | [9] 0.147 | [10] -0.05

GET4 (UniProt Q7L5D6)
inactive: [1] -0.005 | [2] 0.017 | [3] -0.007 | [4] 0.12 | [5] 0.008 | [6] -0.008 | [7] 0.001 | [8] -0.048 | [9] 0.025 | [10] 0.093

GATA1 (UniProt P15976)
inactive: [1] -0.023 | [2] 0.001 | [3] -0.05 | [4] -0.034 | [5] 0.02 | [6] 0.07 | [7] 0.014 | [8] -0.087 | [9] 0.008 | [10] -0.021

FTL (UniProt P02792)
inactive: [1] -0.013 | [2] 0.251 | [3] 0.053 | [4] 0.211 | [5] -0.039 | [6] -0.202 | [7] -0.097 | [8] -0.05 | [9] 0 | [10] 0.003

FOXRED1 (UniProt Q96CU9)
inactive: [1] 0.024 | [2] -0.042 | [3] 0.004 | [4] -0.121 | [5] -0.018 | [6] 0.052 | [7] 0.002 | [8] 0.064 | [9] -0.035 | [10] 0.065

GCSH (UniProt P23434)
inactive: [1] -0.086 | [2] -0.029 | [3] 0.014 | [4] -0.024 | [5] 0.154 | [6] 0.03 | [7] 0.003 | [8] 0.001 | [9] -0.028 | [10] -0.078

GAR1 (UniProt Q9NY12)
inactive: [1] -0.064 | [2] 0.376 | [3] 0.03 | [4] 0.209 | [5] -0.067 | [6] -0.003 | [7] 0.002 | [8] -0.095 | [9] 0.023 | [10] -0.091

GARS1 (UniProt P41250)
inactive: [1] 0.002 | [2] -0.028 | [3] -0.012 | [4] -0.021 | [5] -0.046 | [6] -0.017 | [7] -0.006 | [8] 0.054 | [9] -0.032 | [10] -0.012

FSCN1 (UniProt Q16658)
inactive: [1] 0.094 | [2] -0.055 | [3] 0.008 | [4] -0.04 | [5] -0.067 | [6] -0.041 | [7] 0.021 | [8] -0.001 | [9] -0.014 | [10] 0.011

GDI2 (UniProt P50395)
inactive: [1] -0.014 | [2] -0.031 | [3] 0.028 | [4] -0.019 | [5] -0.002 | [6] -0.009 | [7] 0 | [8] 0.01 | [9] -0.003 | [10] -0.059

GALNT10 (UniProt Q86SR1)
inactive: [1] 0.012 | [2] 0.026 | [3] 0.25 | [4] 0.146 | [5] -0.135 | [6] -0.046 | [7] 0.08 | [8] -0.093 | [9] -0.168 | [10] 0.078

FOXRED2 (UniProt Q8IWF2)
inactive: [1] -0.035 | [3] -0.152 | [4] -0.039 | [5] -0.251 | [6] -0.06 | [8] 0.015 | [9] 0.01

FTSJ1 (UniProt Q9UET6)
inactive: [1] -0.091 | [2] -0.124 | [3] 0.006 | [4] -0.048 | [5] -0.125 | [6] 0.007 | [7] 0.03 | [8] 0.038 | [9] 0.007 | [10] 0.059

FOXJ3 (UniProt Q9UPW0)
inactive: [1] 0.01 | [3] 0.05 | [4] -0.028 | [5] 0.269 | [6] -0.06 | [7] 0.045 | [8] 0.067 | [9] 0.12

GALNT12 (UniProt Q8IXK2)
inactive: [1] -0.014 | [2] 0.028 | [3] 0.008 | [4] 0.011 | [5] 0.247 | [6] -0.074 | [8] -0.106 | [9] -0.006 | [10] -0.04

GATC (UniProt O43716)
inactive: [1] -0.112 | [3] -0.04 | [4] -0.149 | [5] 0 | [6] -0.234 | [7] -0.04 | [8] 0.112 | [9] 0 | [10] 0.015

Reprinted at random: 2 records from the list
GAPVD1 isoform 6 (UniProt Q14C86)
inactive: [1] 0.003 | [2] 0.033 | [3] 0.055 | [4] -0.021 | [5] 0.047 | [6] -0.048 | [7] -0.013 | [8] -0.068 | [9] 0.041 | [10] -0.025

GET4 (UniProt Q7L5D6)
inactive: [1] -0.005 | [2] 0.017 | [3] -0.007 | [4] 0.12 | [5] 0.008 | [6] -0.008 | [7] 0.001 | [8] -0.048 | [9] 0.025 | [10] 0.093

Later entries.

GAB2 (UniProt Q9UQC2)
inactive: [1] 0.044 | [2] -0.053 | [3] -0.145 | [4] 0.084 | [5] 0.007 | [6] -0.526 | [8] -0.236 | [9] 0.033 | [10] -0.348

GDF15 (UniProt Q99988)
inactive: [1] -0.063 | [3] -0.042 | [4] 0.023 | [5] -0.222 | [6] -0.043 | [7] 0.075 | [8] -0.247 | [9] 0.038

GALNT7 (UniProt H0YAH3)
inactive: [1] 0.043 | [3] 0.298

GATAD2B (UniProt Q8WXI9)
inactive: [1] 0.205 | [2] 0.03 | [5] -0.15 | [6] -0.05 | [8] -0.075 | [9] 0.054

GFOD1 (UniProt Q9NXC2)
inactive: [1] -0.921 | [6] 0.259 | [9] -1.04 | [10] -0.018

GDAP2 (UniProt Q9NXN4)
inactive: [1] -0.133 | [2] 0.213 | [4] 0.133 | [5] -0.033 | [7] 0.472 | [8] 0.066

GCC1 (UniProt Q96CN9)
inactive: [1] 0.026 | [7] -0.19 | [10] -0.152

FUT8 (UniProt Q9BYC5)
inactive: [1] -0.156 | [2] -0.043 | [3] -0.019 | [4] -0.066 | [5] 0.022 | [7] 0.084 | [8] -0.03 | [10] -0.032

GC isoform 3 (UniProt P02774)
inactive: [1] -0.717 | [2] 0.228 | [3] 0.022 | [4] -0.058 | [6] -0.237 | [7] -0.068 | [9] 0.264 | [10] 0.231

FUOM (UniProt A2VDF0)
inactive: [1] -0.097 | [2] 0.017 | [3] 0.1 | [5] 0.349 | [7] -0.069 | [8] 0.14

FYB1 isoform 3 (UniProt O15117)
inactive: [1] 0.001 | [2] 0.06 | [4] -0.106 | [5] -0.035 | [6] 0.026 | [7] 0.103 | [8] 0.134 | [9] 0.068 | [10] 0.108

FOXO3 (UniProt O43524)
inactive: [1] 0.027 | [2] -0.069 | [3] 0.083 | [4] 0.154 | [5] 0.149 | [6] -0.067 | [8] -0.068 | [9] -0.106 | [10] -0.09
